The data set is described as follows: general procedure: solution-phase peptide synthesis; acyl azide (isoamylnitrite/HCl); DCC/HOBT; BOP; N-hydroxysuccinimide ester. The note with it: hydrochloride or acetate.

The values below come from patent EP0312157A2 (Merck & Co., Inc., priority 1987, dated 1989).

Strings that start with PEPTIDE1 are HELM notation: dots part the residues, brackets hold end groups and non-standard residues. Bounds are passed on as bounds.

With “Boc-Phe-His-ACHPA-Lys(Cbz)-NHCH2(pyridin-4-yl)”, the “final HPLC purity” value (coupling step, C18-Zorbax HPLC) is over 99%. The step yield (coupling step) stood at 82%. For “Boc-Phe-His-ACHPA-Lys-N(CH3)CH2(pyridin-4-yl) acetate”, under “late stage modification step, C18 Dynamax HPLC”, the “final HPLC purity” value amounted to 98.9%.

For the substance “Boc-Tyr(OMe)-His(DNP)-ACHPA-Lys(Cbz)-NHCH2-(pyridin-4-yl)”, the step yield (coupling step) was 87%.

In turn, “PEPTIDE1{[BocNHCH2CH2OCO].F.H.[ACHPA].K.[NHCH2(piperidin-4-yl)]}$$$$V2.0” returned a step yield (late stage modification step) of 78%. With “PEPTIDE1{[Boc].[YOMe].H.[ACHPA].K.[PyM]}$$$$V2.0”, the “final HPLC purity” value (late stage modification step, Dynamax Scout-C18 HPLC) is given as 98.5%. The same substance showed a step yield (late stage modification step) of 65%. Under “late stage modification step”, “PEPTIDE1{[iPrSO2].F.H.[ACHPA].K.[NHCH2(piperidin-4-yl)]}$$$$V2.0” had a step yield of 86%.
